In test [1] the target is T1, wild-type S100P ectopically expressed in RKO cells (UniProt P25815).
T1 sequence: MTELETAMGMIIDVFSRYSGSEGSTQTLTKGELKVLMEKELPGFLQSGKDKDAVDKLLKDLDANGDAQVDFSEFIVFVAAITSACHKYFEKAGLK
Put plainly: co-IP; immunoprecipitation with S100P-specific antibody from lysates of RKO cells ectopically expressing wild-type or dimerization-defective S100P.

By UniProt entry, the sequences of proteins in these tests, tags left out.
UniProt Q00987: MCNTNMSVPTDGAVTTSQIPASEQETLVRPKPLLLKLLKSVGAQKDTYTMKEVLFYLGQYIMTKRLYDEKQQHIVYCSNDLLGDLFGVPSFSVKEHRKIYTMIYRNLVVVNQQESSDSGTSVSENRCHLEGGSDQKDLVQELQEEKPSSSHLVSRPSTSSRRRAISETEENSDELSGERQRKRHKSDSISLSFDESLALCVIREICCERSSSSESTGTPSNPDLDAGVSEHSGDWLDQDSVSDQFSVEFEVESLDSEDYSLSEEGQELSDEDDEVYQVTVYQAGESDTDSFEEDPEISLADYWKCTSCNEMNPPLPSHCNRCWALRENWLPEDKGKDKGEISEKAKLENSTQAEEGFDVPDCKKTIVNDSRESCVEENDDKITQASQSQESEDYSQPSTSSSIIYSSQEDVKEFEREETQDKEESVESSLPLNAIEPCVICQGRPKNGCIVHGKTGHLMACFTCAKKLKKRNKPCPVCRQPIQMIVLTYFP

For test [2], the target named is T2, GST-wtS100P (UniProt P25815).
T2 sequence: T1 sequence
The test can be described thus: pull-down; GST fusion proteins from bacterial lysate supernatants immobilized on Glutathione-S-Sepharose 4B beads, washed, incubated overnight with pre-cleared lysates of RKO or T47D cells containing 0.7 mM CaCl2 or 0.7 mM EGTA; immunoblot with DO-1 (p53) and 2A9 (HDM2); only the target purified.

No constants are given. Whether binding was seen depends on the method and setting. In cells and extracts the contact can be indirect. Some binding calls cover weakened binding; strength is not graded here. For some assays here: Tags and fused reporters may be left off the sequences shown.

Take “HDM2 oncoprotein (from UniProt Q00987 1-491)”: the binding entry in test [1] and in test [2] was “binds” each time.

Values taken from paper PMC5008377.
